From PubChem BioAssay AID540276 (National Center for Advancing Translational Sciences (NCATS), 2011)
Among all 300,000 compounds or so, about 5,400 (1.8%) were called active. Inconclusive results, whose numbers are uncertain, are shown with a selection of clear calls. Calls follow the shape of the full dose curve; tested in HEK293 cells. A potency beside an inconclusive call is a rough fit, not a confirmed value.

test: qHTS for inhibitors of binding or entry into cells for Marburg Virus; details: Marburg virus pseudotyped entry inhibition, cell reporter; series mostly up to 37.8 µM
Potency is read from the fitted curve at half-maximal effect.

Compound | Potency
Cc1ccc(Cn2nnc3c(=O)[nH]c(C4CCCN(C(=O)Nc5ccc(F)cc5F)C4)nc32)cc1 (stereo not given) | inactive
C[N+](C)(C)CC1CCCc2ccccc2C1=O (stereo not given) | inconclusive: 12.6 µM [inhibitor, partial curve, poor fit]
O=C(NCc1ccccc1)C(c1ccccc1)N(Cc1ccc2c(c1)OCO2)C(=O)Cc1cccs1 (stereo not given) | inconclusive: 17.8 µM [inhibitor, single point]
CC(=O)c1ccc(N2CCCCCC2)c(F)c1 | inconclusive: 7.08 µM [activator, partial curve, poor fit]
CC(C)(CSc1ncccn1)NS(=O)(=O)c1ccccc1 | inactive
Cc1cccc(NC(=O)N2CCc3ccccc3C2)c1C | inconclusive: 35.5 µM [activator, single point]
CC(C)(O)C#Cc1ccc(C(=O)Nc2ccc3c(c2)OCO3)s1 | inconclusive: 5.62 µM [activator, single point]
O=C(NN=C1CCCC1)c1ccn[nH]1 | inconclusive: 35.5 µM [activator, single point]
CN1c2ccc(C=O)c3c(C=O)ccc(c23)N(C)C1(C)C | active: 10 µM
O=C(NCC1CCCO1)c1cccc(S(=O)(=O)N2CCCCC2)c1 (stereo not given) | inconclusive: 35.5 µM [activator, single point]
COc1ccccc1C1CCN(c2cc(O)ccc2[N+](=O)[O-])CC1 | inconclusive: 35.5 µM [inhibitor, single point]
CCCCCOC(=O)Nc1nnc(CCC)s1 | inactive
CCC(=O)N1CCc2cc(Br)cc(S(=O)(=O)N3CCN(C(=O)c4ccco4)CC3)c21 | inconclusive: 7.94 µM [activator, partial curve, poor fit]
CCCN(CCC)CCCNC(=O)C1CCCN(Cc2nc(-c3ccc(Cl)cc3)oc2C)C1 (stereo not given) | inconclusive: 6.31 µM [inhibitor, single point]
COCCNC(=O)C1CCN(C(=O)c2cc3sccc3n2Cc2ccc(Cl)cc2)CC1 | active: 7.94 µM
COc1cc2c(cc1OC)C1=NC(=O)CN1C(SCc1ccccc1C)=N2 | inconclusive: 14.6 µM [inhibitor, partial curve, poor fit]
Cc1c(NC(=O)COc2cccc3c2OC(C)(C)C3)c(=O)n(-c2ccccc2)n1C | inactive
Cc1ccc(-c2nc(CS(=O)CC(=O)NCc3ccccc3Cl)c(C)o2)cc1 (stereo not given) | inactive
Cc1cc(C)cc(OCCNC(=O)C(C)N2C(=O)c3ccccc3C2=O)c1 (stereo not given) | inconclusive: 6.31 µM [inhibitor, partial curve, poor fit]
COc1ccc(NC(=O)C2=C(C)NC(=S)NC2c2ccc(O)c(OC)c2)cc1 (stereo not given) | inconclusive: 2.82 µM [activator, single point]
O=C(c1ccc2c(c1)C(=O)N(Cc1ccco1)C2=O)N1CCOCC1 | inconclusive: 14.6 µM [activator, partial curve, poor fit]
O=C(CCN1C(=O)c2ccccc2C1=O)Nc1ccc(-c2nc3ccccc3s2)cc1 | inconclusive: 15.8 µM [inhibitor, partial curve, poor fit]
C=Cn1ccnc1P(=S)(c1cc(N(CC)CC)ns1)c1nccn1C=C | inconclusive: 32.6 µM [inhibitor, partial curve, poor fit]
O=C(NN=Cc1ccc(N(CCCl)CCCl)cc1Cl)c1cccnc1 | active: 1.58 µM

Compound | Potency
Cc1ccc(NC(=O)Cc2sc(C)nc2-c2ccc(C)cc2)cc1 | inconclusive: 7.08 µM [activator, partial curve, poor fit]
CCOc1ccccc1/C=C/c1cc(C(=O)O)c2ccccc2n1 | inactive
Cc1ccc(C)c(C(=O)COC(=O)c2cc([N+](=O)[O-])ccc2NCCO)c1 | inconclusive: 1.26 µM [inhibitor, full curve, poor fit]
CCCC/C(C)=N\NC(=O)CNS(=O)(=O)c1ccc([N+](=O)[O-])cc1 | inactive
CCN(CC)CCN(C(=O)C1=COCCO1)c1nc2cc(C)cc(C)c2s1 | active: 11.2 µM
COc1cccc(/C=N/c2nc3ccccc3n2C)c1O | inactive
Cc1c(C(=O)O)oc2c1/C(=N\O)CCC2 | inconclusive: 0.112 µM [inhibitor, full curve, poor fit]
Cc1ccc(OCCNC(=O)C(=O)NCc2ccco2)cc1 | inconclusive: 2.51 µM [inhibitor, full curve]
NS(=O)(=O)c1ccc(N/C=C\C(=O)c2ccncc2)cc1 | inconclusive: 6.31 µM [activator, single point]
O=C(NCc1cccs1)c1cc(-c2ccccc2)on1 | inactive
O=C([C@H](c1ccccc1)N1CCOCC1)N1CCOCC1 | inactive
Brc1ccc(-c2noc(C3CCCCC3)n2)cc1 | inactive
O=C(CNCc1ccc(F)cc1)Nc1ccccc1-c1ccccc1 | inconclusive: 3.16 µM [inhibitor, single point]
Cc1cccc(C)c1NC(=O)CSc1nc2c([nH]1)c(=O)n(C)c(=O)n2C | inconclusive: 35.5 µM [activator, single point]
COc1cccc(NC(=S)N2CCN(S(=O)(=O)c3ccc(F)cc3)CC2)c1 | inactive
CC(=O)Nc1ccc(S(=O)(=O)N2CCN(C(=O)c3ncoc3-c3ccc(F)cc3)CC2)cc1 | inconclusive: 8.91 µM [inhibitor, full curve, poor fit]
Cn1c(SCC(=O)NCc2ccc3c(c2)OCO3)nc2c(c1=O)SCC2 | inactive
O=C(Nc1nc2ccccc2[nH]1)C12CC3CC(CC(C3)C1)C2 | inconclusive: 35.5 µM [inhibitor, single point]
CCC(CC)C(=O)N(CCc1ccc(OC)cc1)Cc1nc2ccccc2c(=O)[nH]1 | inconclusive: 29.1 µM [inhibitor, single point]
CC[C@]12c3[nH]c4ccc(Cl)cc4c3CCN1C(=O)[C@@H](CC(=O)NCc1cccc(C(F)(F)F)c1)C[C@@H]2C(=O)N1CCN(C(=O)c2ccco2)CC1 | inactive
O=S(=O)(c1ccc(Cl)cc1)n1cccn1 | inconclusive: 15.8 µM [activator, single point]
O=C(NC1CCCCC1)c1ccc(S(=O)(=O)c2ccccc2Cl)c([N+](=O)[O-])c1 | inconclusive: 0.291 µM [inhibitor, full curve, poor fit]
CCCS(=O)(=O)Nc1ccc(N2CCCCC2)c(S(=O)(=O)Nc2ccccc2OC)c1 | inconclusive: 25.1 µM [inhibitor, single point]
Cc1cccc(C)c1OCc1nc2c3cnn(-c4ccccc4F)c3ncn2n1 | inconclusive: 2.51 µM [inhibitor, partial curve, poor fit]

A run of entries taken from the entries so far:
Compound | Potency
Cc1ccc(NC(=O)Cc2sc(C)nc2-c2ccc(C)cc2)cc1 | inconclusive: 7.08 µM [activator, partial curve, poor fit]
CCOc1ccccc1/C=C/c1cc(C(=O)O)c2ccccc2n1 | inactive
Cc1ccc(C)c(C(=O)COC(=O)c2cc([N+](=O)[O-])ccc2NCCO)c1 | inconclusive: 1.26 µM [inhibitor, full curve, poor fit]

The list goes on:

Compound | Potency
COc1ccccc1Oc1ccc(NC(=O)c2ccccc2)cc1 | inactive
Nc1nc(Cl)cc(Sc2ccc3ccccc3c2)n1 | inactive
NC(=S)NN=C(Cc1ccccc1)Cc1ccccc1 | inconclusive: 6.31 µM [inhibitor, single point]
Clc1ccc(-c2nnc3sc(-c4ccccn4)nn23)cc1 | inactive
COc1cc(OC)cc(C(=O)Nc2ccccc2C(=O)N2CCCC2)c1 | inactive
CCC1CCCCN1S(=O)(=O)c1ccc(NC(=O)c2nc(S(C)(=O)=O)ncc2Cl)cc1 (stereo not given) | active: 8.91 µM
CCN(CC)CCCNC(=O)c1cc(-c2ccccc2)c(N2CCCCC2)s1 | inconclusive: 35.5 µM [inhibitor, single point]
CCOC(=O)CN1C(=O)[C@@]2(CC(C)=C[C@@H](COCc3ccccc3)O2)c2ccccc21 | inactive
CC(=O)Nc1cccc(NC(=O)COc2ccc3c(c2)OCO3)c1 | inconclusive: 12.6 µM [activator, partial curve, poor fit]
CCN1CCN(Cc2c(O)ccc3c2O/C(=C\C=C\c2ccccc2OC)C3=O)CC1 | inconclusive: 35.5 µM [inhibitor, single point]
O=C(/C=C1\NC2(CCCC2)Cc2ccccc21)C(=O)N/N=C/c1ccc(O)c(O)c1 | inconclusive: 7.31 µM [inhibitor, partial curve, poor fit]
CCOC(=O)c1ccccc1NC(=O)CN(c1cccc(C)c1C)S(=O)(=O)c1ccccc1 | inconclusive: 35.5 µM [inhibitor, single point]
CCCNS(=O)(=O)c1cc(-c2nn3c(C)nnc3c3ccccc23)ccc1C | inconclusive: 6.31 µM [activator, single point]
COc1ccccc1NS(=O)(=O)c1ccc2oc(=O)ccc2c1 | inconclusive: 0.891 µM [inhibitor, partial curve, poor fit]
CS(=O)(=O)N1CCN(c2ccc(NC(=O)COc3ccccc3[N+](=O)[O-])cc2)CC1 | inactive
CCC(=O)Nc1ccc(NC(=O)C23CC4CC(CC(C4)C2)C3)cn1 | inactive
Cc1ccc(CNC(=O)C2CCCN2S(=O)(=O)c2ccc(F)cc2)cc1 (stereo not given) | inconclusive: 35.5 µM [inhibitor, single point]
CCOc1ccc(C(=O)NC2CCN(S(C)(=O)=O)CC2)cc1 | inconclusive: 13 µM [activator, partial curve]
OCCNCCSc1nc(C2CCCCC2)n(-c2ccccc2Cl)n1 | inconclusive: 35.5 µM [inhibitor, single point]
N#Cc1ccc(-c2csc(NNC(=O)c3ccccc3)n2)cc1 | active: 10 µM
OCCNNC(=S)NC1CC2C=CC1C2 (stereo not given) | inconclusive: 0.251 µM [inhibitor, full curve, poor fit]
COc1ccccc1CNC(=O)c1cc2c(=O)oc3ccc(C)cc3c2s1 | inactive
